Data: the supplement of paper PMC9233669
Variants at the background level are over-represented here.

Legend:
[1] = tested on: biotinyl-Ile-oxazolone; test: self-aminoacylation, catalytic enhancement (BIO) (fold over background); higher = more active; k-Seq, kA / k0A0; sequences stand for … in GGGAAUGGAUCCACAUCUACGAAUUC…UUCACUGCAGACUUGACGAAGCUG
Procedure, shortened: (§1)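 Each biotinyl-aminoacyl-oxazolone, at 2–1250 μM, was incubated with mutagenized RNA pools (0.43 μM) carrying a 21-nt variable region. The 50 μL reactions contained HEPES/NaCl/KCl/MgCl2/CaCl2 buffer with 5% acetonitrile at pH 6.9–7.0 and ran for 90 minutes at room temperature. After streptavidin capture, RNA was measured by qPCR in triplicate and by Illumina sequencing, and catalytic enhancement was calculated as median kA over the uncatalyzed rate from a pseudo-first-order fit of per-sequence fraction reacted.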

[2] = tested on: biotinyl-Leu-oxazolone; test: self-aminoacylation, catalytic enhancement (BLO) (fold over background); higher = more active; k-Seq, kA / k0A0; sequences stand for … in GGGAAUGGAUCCACAUCUACGAAUUC…UUCACUGCAGACUUGACGAAGCUG
Procedure, shortened: as §1

[3] = tested on: biotinyl-Met-oxazolone; test: self-aminoacylation, catalytic enhancement (BMO) (fold over background); higher = more active; k-Seq, kA / k0A0; sequences stand for … in GGGAAUGGAUCCACAUCUACGAAUUC…UUCACUGCAGACUUGACGAAGCUG
Procedure, shortened: as §1

[4] = tested on: biotinyl-Trp-oxazolone; test: self-aminoacylation, catalytic enhancement (BWO) (fold over background); higher = more active; k-Seq, kA / k0A0; sequences stand for … in GGGAAUGGAUCCACAUCUACGAAUUC…UUCACUGCAGACUUGACGAAGCUG
Procedure, shortened: as §1

[5] = tested on: biotinyl-Phe-oxazolone; test: self-aminoacylation, catalytic enhancement (BFO) (fold over background); higher = more active; k-Seq, kA / k0A0; sequences stand for … in GGGAAUGGAUCCACAUCUACGAAUUC…UUCACUGCAGACUUGACGAAGCUG
Procedure, shortened: as §1

[6] = tested on: biotinyl-Val-oxazolone; test: self-aminoacylation, catalytic enhancement (BVO) (fold over background); higher = more active; k-Seq, kA / k0A0; sequences stand for … in GGGAAUGGAUCCACAUCUACGAAUUC…UUCACUGCAGACUUGACGAAGCUG
Procedure, shortened: as §1

Sequence | self-aminoacylation [1] | self-aminoacylation [2] | self-aminoacylation [3] | self-aminoacylation [4] | self-aminoacylation [5] | self-aminoacylation [6]
AAAUUUGAUAAUAGUCGCAAG [Fam3.1 aminoacylation ribozyme variant] | 1.68 | 1.48 | 1.67 | 1.42 | 1.83 | 1.47
AAAUUUGCUAAUAAUCGCAAG [Fam3.1 aminoacylation ribozyme variant] | 1.73 | 1.09 | 1.33 | 1.43 | 1.65 | 1.47
AAAUUUGCUAAUGGUCGCAAG [Fam3.1 aminoacylation ribozyme variant] | 1.57 | 1.59 | 1.3 | 1.05 | 1.63 | 1.27
AAAUUUGCUAUUAGUCGCAAG [Fam3.1 aminoacylation ribozyme variant] | 1.88 | 1.72 | 1.72 | 1.68 | 1.57 | 1.54
AACUUUCCUAAUAGUCGCAAG [Fam3.1 aminoacylation ribozyme variant] | 1.29 | 1.58 | 1.4 | 1.72 | 2.29 | 1.11
AAGAUUGCUAACAGUCGCAAG [Fam3.1 aminoacylation ribozyme variant] | 1.81 | 1.88 | 1.24 | 1.68 | 2.49 | 1.72
AAGAUUGCUUAUAGUCGCAAG [Fam3.1 aminoacylation ribozyme variant] | 1.78 | 1.5 | 1.25 | 2.35 | 2.44 | 1.5
AAGUAUGCUAAUAGUCGCACG [Fam3.1 aminoacylation ribozyme variant] | 1.22 | 1.5 | 0.989 |  | 1.72 | 1.09
AAGUAUGCUAAUAGUCGCCAG [Fam3.1 aminoacylation ribozyme variant] | 1.57 | 1.16 | 1.19 |  | 1.52 | 1.06
AAGUGUGCUAAUAGUCGCGAG [Fam3.1 aminoacylation ribozyme variant] | 1.59 |  | 1.18 |  | 1.5 | 1.48
AAGUUAGCUAAUCGUCGCAAG [Fam3.1 aminoacylation ribozyme variant] | 1.49 | 1.47 | 1.08 |  | 1.46 | 1.22
AAGUUGGCUAAUAGUCACAAG [Fam3.1 aminoacylation ribozyme variant] | 1.66 | 1.38 | 1.36 |  | 1.91 | 1.33
AUUACCCUGGUCCUCGAGGGA [Fam2.1 aminoacylation ribozyme variant] | 1.48 | 1.64 | 1.39 |  | 0.556 | 
AUUACUCUGGUCAUCGAGGGA [Fam2.1 aminoacylation ribozyme variant] | 1.52 | 1.56 |  |  | 1.15 | 1.35
AUUACUCUGGUCAUCGAGUGG [Fam2.1 aminoacylation ribozyme variant] | 1.71 |  |  | 1.16 | 1.75 | 1.47
CAACUUUAAACAAUCGGUCUG [Fam1A.1 aminoacylation ribozyme variant] | 1.12 | 0.824 | 0.89 | 1.52 |  | 0.937
CAGUUUGCUAAGAGUCGCAAG [Fam3.1 aminoacylation ribozyme variant] | 1.07 | 1.09 | 1.35 | 1.07 |  | 1.06
CAGUUUGCUAAUAGUCGCAAC [Fam3.1 aminoacylation ribozyme variant] | 1.33 | 1.28 | 1.19 | 0.966 |  | 1.25
CAGUUUUCUAAUAGUCGCAAG [Fam3.1 aminoacylation ribozyme variant] | 1.54 | 0.98 | 1.22 | 1.38 |  | 1.1
CCAACCUUCAAGCAAUCGGUC [Fam1B.1 aminoacylation ribozyme variant] | 1.28 | 1.6 | 1.37 | 15.3 |  | 1.41
CCACACUUCAAGCACUGGGUC [Fam1B.1 aminoacylation ribozyme variant] | 0.807 | 0.971 | 0.66 | 1.03 |  | 1.1
CCACACUUCAAGCGAUCGGAC [Fam1B.1 aminoacylation ribozyme variant] | 1.22 | 1.26 | 1.33 | 1.36 |  | 1.27
CCACACUUCAAGCUAUCGCUC [Fam1B.1 aminoacylation ribozyme variant] | 1.8 | 1.3 | 1.51 | 1.28 |  | 1.93
CCACACUUCACGCAUUCGGUC [Fam1B.1 aminoacylation ribozyme variant] | 1.48 | 1.62 | 1.5 | 1.49 |  | 1.96
CCACGCAUCAAGCAAUCGGUC [Fam1B.1 aminoacylation ribozyme variant] | 0.867 | 0.751 | 0.671 | 1.89 |  | 1.21
CCAGACUUCAAGCAAUCGGUC [Fam1B.1 aminoacylation ribozyme variant] | 1.45 | 2.04 | 1.42 | 26 |  | 1.54
CCAUACUUCAAACAAUCGGUC [Fam1B.1 aminoacylation ribozyme variant] | 1.3 | 1.91 | 1.12 | 30.3 |  | 1.19

Sequence | self-aminoacylation [1] | self-aminoacylation [2] | self-aminoacylation [3] | self-aminoacylation [4] | self-aminoacylation [5] | self-aminoacylation [6]
CGACUUCAAACAAUCGAUCUG [Fam1A.1 aminoacylation ribozyme variant] | 0.668 | 0.719 | 0.604 | 1.4 |  | 0.729
CGACUUCUAACAAUCGGUCUG [Fam1A.1 aminoacylation ribozyme variant] | 0.905 | 0.917 | 0.936 | 0.591 |  | 0.931
CUAAAUCAAACAAUCGGUCUG [Fam1A.1 aminoacylation ribozyme variant] | 0.724 | 0.567 | 0.731 | 1.53 |  | 0.733
CUACAUCAAACAAUCGGUCUU [Fam1A.1 aminoacylation ribozyme variant] | 0.69 | 0.615 | 0.791 | 1.25 |  | 0.748
CUACGUCAAACGAUCGGUCUG [Fam1A.1 aminoacylation ribozyme variant] | 1.49 | 1.64 | 1.67 | 0.956 |  | 1.76
CUACGUCAAAGAAUCGGUCUG [Fam1A.1 aminoacylation ribozyme variant] | 1.49 | 1.83 | 1.15 | 0.909 |  | 1.52
CUACUCCAAACAAUCGGUUUG [Fam1A.1 aminoacylation ribozyme variant] | 0.987 | 1.07 | 0.786 | 1.77 |  | 0.901
CUACUCCAAACAAUCUGUCUG [Fam1A.1 aminoacylation ribozyme variant] | 0.799 | 0.716 | 0.578 | 0.506 |  | 0.766
CUACUGCAAACAGUCGGUCUG [Fam1A.1 aminoacylation ribozyme variant] | 0.827 | 0.643 | 1.03 | 0.649 |  | 0.818
CUACUUCAAACAAUCACUCUG [Fam1A.1 aminoacylation ribozyme variant] | 0.646 | 0.611 | 0.457 | 1.11 |  | 0.761
CUACUUCAAACAAUCGCUCUG [Fam1A.1 aminoacylation ribozyme variant] | 0.673 | 0.603 | 0.574 | 1.43 |  | 0.685
CUACUUCAAACAAUCGCUGUG [Fam1A.1 aminoacylation ribozyme variant] | 1.38 |  | 1.4 | 1.88 | 1.9 | 1.14
CUACUUCAAACAAUCGGAAUG [Fam1A.1 aminoacylation ribozyme variant] | 1.17 | 0.969 | 0.991 | 4.46 |  | 0.846
CUACUUCAAACAAUCGUACUG [Fam1A.1 aminoacylation ribozyme variant] | 0.519 | 0.389 | 0.419 | 0.573 |  | 0.533
CUACUUCAAACACUCCGUCUG [Fam1A.1 aminoacylation ribozyme variant] | 0.772 | 0.727 | 0.845 | 0.771 |  | 0.869
CUACUUCAAACACUCGGGCUG [Fam1A.1 aminoacylation ribozyme variant] |  |  | 1.62 | 1.5 | 1.3 | 
CUACUUCAAACACUCGGUCGG [Fam1A.1 aminoacylation ribozyme variant] | 1.57 | 1.98 | 1.64 | 1.17 |  | 1.27
CUACUUCAGACAAUCGGGCUG [Fam1A.1 aminoacylation ribozyme variant] | 1.46 | 1.25 | 1.82 | 1.33 |  | 1.62
CUACUUGAAACACUCGGUCUG [Fam1A.1 aminoacylation ribozyme variant] | 1.13 | 1.48 | 1.02 | 0.946 |  | 1.11
CUUACCCUGGUCAUCGAGGGA [Fam2.1 aminoacylation ribozyme variant] | 1.01 | 1.2 | 1.33 | 1.58 | 0.844 | 
CUUCUACAAACAAUCGGUCUG [Fam1A.1 aminoacylation ribozyme variant] | 0.694 | 0.623 | 0.763 | 0.564 |  | 0.831
CUUCUCCUAGGUCAUCGGGUG [Fam2.2 aminoacylation ribozyme variant] | 4.42 | 8.84 | 6.43 | 6.52 |  | 4.48
GUACUACAAACAAUCGGUCUG [Fam1A.1 aminoacylation ribozyme variant] | 1.11 | 0.95 | 1.11 |  | 1.76 | 1.07
GUUCACCUAGGUCAUCGGGAG [Fam2.2 aminoacylation ribozyme variant] | 1.39 | 1.74 | 1.44 |  | 1.07 | 1.7
UAGUUGGCUAAUAGUCGCAAG [Fam3.1 aminoacylation ribozyme variant] | 1.71 | 1.6 | 1.94 | 1.76 |  | 1.93
UCGUUUGCUAAUAGUCGCAAG [Fam3.1 aminoacylation ribozyme variant] | 1.19 | 0.971 | 1.21 | 1.87 |  | 1.04
UUACUUCAAACAUUCGGUCUG [Fam1A.1 aminoacylation ribozyme variant] | 1.34 | 1.28 | 1.61 | 1.01 |  | 1.15
